One sequence from publication PMC12977164 can be followed below.

The exact form of at least one protein or probe is not confirmed.

For the data set, the system named is MBP-DpbZIP12. Nature of the data set: EMSA. The following applies: shifted band diminished by unlabeled competitor probe (10x, 20x, 50x); LightShift Chemiluminescent EMSA Kit (Pierce), polyacrylamide gel; pH and temperature not stated; recombinant protein; label: biotin. On the technique in general: Mobility shift assays separate free from complexed probe on a gel.

Regarding “TTGTGCACACGTGTCGTGACAGGTCTCACACGTGGCAAGT (double strand) [proDp7-DR probe]”, the binding result is on record as “binds”.
